The supplement of paper PMC7666118
Some of the results follow.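 Rule for the calls: active = dose-dependent thermal stabilisation significant by F-test of dose-response against flat model at 10% FDR; inactive = not significant.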

Sequences of proteins named here, by UniProt entry; tags and fusion partners are left off. A change or cut given only in a name is not applied to a line headed by its entry.
UniProt Q08752, whole entry: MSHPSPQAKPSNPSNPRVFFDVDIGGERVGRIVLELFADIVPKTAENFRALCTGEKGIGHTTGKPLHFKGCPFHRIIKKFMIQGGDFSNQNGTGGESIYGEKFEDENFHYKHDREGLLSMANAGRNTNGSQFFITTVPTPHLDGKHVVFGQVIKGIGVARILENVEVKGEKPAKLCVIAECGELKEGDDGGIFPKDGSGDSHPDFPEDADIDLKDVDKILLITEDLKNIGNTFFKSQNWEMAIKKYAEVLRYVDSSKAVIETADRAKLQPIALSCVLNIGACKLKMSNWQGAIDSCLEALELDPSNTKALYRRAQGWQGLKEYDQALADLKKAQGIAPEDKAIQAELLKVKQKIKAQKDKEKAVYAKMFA
UniProt Q99570, whole entry: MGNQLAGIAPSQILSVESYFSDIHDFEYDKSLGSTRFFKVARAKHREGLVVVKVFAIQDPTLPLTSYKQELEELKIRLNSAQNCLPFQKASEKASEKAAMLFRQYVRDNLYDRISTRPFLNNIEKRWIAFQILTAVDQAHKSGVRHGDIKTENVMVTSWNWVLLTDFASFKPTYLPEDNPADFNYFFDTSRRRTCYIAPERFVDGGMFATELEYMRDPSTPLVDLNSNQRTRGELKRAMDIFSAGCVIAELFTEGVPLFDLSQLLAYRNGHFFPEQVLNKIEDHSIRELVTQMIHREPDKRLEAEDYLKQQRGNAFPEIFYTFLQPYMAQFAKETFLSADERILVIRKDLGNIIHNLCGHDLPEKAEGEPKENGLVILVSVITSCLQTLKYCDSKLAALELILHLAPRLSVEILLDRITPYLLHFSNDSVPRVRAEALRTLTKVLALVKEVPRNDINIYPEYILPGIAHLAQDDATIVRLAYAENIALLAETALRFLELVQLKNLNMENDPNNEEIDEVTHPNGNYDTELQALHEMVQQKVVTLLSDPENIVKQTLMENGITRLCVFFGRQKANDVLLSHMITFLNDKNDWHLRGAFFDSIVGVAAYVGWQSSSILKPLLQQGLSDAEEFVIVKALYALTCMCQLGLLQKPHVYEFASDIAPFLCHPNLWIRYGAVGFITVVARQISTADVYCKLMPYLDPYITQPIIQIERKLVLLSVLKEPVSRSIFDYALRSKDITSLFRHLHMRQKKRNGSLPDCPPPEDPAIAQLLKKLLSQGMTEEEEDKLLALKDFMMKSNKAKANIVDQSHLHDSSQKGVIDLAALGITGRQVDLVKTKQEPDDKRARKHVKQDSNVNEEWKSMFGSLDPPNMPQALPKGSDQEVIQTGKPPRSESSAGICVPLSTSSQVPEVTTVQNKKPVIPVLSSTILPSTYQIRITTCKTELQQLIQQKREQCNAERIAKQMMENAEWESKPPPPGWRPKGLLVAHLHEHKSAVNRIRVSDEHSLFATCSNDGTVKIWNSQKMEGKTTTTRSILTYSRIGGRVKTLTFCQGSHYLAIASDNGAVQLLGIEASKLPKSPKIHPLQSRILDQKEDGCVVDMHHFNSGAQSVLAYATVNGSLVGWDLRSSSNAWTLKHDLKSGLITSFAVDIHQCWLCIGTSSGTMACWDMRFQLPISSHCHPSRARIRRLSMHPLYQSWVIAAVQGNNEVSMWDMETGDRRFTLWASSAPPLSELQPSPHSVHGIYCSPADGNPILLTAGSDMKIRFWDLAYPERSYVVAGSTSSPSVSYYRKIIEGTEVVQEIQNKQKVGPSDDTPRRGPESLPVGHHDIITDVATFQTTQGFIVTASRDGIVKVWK
UniProt Q9UHV9, whole entry: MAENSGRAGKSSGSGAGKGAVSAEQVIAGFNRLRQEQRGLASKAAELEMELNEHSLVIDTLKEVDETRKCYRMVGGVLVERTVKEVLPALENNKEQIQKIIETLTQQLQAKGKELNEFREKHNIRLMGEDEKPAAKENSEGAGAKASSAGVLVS
UniProt P28340: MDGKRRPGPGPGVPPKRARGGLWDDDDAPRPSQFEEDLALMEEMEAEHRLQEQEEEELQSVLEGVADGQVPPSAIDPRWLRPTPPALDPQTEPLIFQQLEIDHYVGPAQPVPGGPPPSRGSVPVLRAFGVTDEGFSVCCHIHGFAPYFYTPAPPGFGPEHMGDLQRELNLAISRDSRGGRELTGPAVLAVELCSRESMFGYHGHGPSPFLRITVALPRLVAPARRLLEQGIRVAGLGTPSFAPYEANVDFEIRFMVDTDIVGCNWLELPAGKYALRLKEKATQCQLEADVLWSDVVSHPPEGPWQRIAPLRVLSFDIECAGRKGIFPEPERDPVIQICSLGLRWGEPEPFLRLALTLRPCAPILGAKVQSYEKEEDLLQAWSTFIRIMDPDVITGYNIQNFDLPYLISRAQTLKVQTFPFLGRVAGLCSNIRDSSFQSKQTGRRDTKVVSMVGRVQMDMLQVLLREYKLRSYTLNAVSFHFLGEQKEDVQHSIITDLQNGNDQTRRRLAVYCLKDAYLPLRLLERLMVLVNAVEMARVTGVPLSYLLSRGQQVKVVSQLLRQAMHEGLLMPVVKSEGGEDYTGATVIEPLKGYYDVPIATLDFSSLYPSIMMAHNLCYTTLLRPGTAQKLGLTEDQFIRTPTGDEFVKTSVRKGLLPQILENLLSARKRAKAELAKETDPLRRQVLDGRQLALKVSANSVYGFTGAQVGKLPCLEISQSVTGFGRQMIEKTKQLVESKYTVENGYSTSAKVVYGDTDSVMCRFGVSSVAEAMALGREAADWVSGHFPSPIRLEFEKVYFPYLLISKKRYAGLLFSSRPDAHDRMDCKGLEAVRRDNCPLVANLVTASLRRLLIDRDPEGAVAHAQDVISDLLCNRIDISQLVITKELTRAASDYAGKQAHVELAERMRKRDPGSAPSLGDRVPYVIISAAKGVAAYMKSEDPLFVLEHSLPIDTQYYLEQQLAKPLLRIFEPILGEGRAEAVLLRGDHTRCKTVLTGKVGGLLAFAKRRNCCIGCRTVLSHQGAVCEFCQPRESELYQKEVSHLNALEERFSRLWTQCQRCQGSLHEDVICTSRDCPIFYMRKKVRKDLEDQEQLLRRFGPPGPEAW
UniProt P30039: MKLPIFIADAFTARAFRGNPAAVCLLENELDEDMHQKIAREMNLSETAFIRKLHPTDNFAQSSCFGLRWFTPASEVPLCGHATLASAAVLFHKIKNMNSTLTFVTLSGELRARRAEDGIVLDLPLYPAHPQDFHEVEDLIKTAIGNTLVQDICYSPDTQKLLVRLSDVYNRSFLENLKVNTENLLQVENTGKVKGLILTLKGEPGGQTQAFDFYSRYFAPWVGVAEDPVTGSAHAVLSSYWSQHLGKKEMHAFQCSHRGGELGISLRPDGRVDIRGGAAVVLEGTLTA
UniProt Q9NUG6, whole entry: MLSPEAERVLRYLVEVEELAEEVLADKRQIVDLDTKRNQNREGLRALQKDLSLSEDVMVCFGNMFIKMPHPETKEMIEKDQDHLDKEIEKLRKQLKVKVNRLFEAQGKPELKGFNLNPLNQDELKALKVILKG
UniProt P48454, whole entry: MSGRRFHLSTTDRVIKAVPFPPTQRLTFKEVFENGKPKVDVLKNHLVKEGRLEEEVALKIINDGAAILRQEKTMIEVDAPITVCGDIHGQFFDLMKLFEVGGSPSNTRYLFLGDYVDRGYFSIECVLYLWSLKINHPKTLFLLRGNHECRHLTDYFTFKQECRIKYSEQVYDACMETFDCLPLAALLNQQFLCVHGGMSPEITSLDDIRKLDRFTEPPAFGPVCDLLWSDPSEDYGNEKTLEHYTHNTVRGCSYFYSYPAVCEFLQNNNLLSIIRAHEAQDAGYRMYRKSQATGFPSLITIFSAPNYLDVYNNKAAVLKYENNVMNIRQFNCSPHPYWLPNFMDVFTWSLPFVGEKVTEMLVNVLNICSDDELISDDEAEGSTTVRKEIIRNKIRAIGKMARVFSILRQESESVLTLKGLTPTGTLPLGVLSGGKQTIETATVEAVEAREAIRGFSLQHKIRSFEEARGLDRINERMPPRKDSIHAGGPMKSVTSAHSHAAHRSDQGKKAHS
UniProt O15534, whole entry: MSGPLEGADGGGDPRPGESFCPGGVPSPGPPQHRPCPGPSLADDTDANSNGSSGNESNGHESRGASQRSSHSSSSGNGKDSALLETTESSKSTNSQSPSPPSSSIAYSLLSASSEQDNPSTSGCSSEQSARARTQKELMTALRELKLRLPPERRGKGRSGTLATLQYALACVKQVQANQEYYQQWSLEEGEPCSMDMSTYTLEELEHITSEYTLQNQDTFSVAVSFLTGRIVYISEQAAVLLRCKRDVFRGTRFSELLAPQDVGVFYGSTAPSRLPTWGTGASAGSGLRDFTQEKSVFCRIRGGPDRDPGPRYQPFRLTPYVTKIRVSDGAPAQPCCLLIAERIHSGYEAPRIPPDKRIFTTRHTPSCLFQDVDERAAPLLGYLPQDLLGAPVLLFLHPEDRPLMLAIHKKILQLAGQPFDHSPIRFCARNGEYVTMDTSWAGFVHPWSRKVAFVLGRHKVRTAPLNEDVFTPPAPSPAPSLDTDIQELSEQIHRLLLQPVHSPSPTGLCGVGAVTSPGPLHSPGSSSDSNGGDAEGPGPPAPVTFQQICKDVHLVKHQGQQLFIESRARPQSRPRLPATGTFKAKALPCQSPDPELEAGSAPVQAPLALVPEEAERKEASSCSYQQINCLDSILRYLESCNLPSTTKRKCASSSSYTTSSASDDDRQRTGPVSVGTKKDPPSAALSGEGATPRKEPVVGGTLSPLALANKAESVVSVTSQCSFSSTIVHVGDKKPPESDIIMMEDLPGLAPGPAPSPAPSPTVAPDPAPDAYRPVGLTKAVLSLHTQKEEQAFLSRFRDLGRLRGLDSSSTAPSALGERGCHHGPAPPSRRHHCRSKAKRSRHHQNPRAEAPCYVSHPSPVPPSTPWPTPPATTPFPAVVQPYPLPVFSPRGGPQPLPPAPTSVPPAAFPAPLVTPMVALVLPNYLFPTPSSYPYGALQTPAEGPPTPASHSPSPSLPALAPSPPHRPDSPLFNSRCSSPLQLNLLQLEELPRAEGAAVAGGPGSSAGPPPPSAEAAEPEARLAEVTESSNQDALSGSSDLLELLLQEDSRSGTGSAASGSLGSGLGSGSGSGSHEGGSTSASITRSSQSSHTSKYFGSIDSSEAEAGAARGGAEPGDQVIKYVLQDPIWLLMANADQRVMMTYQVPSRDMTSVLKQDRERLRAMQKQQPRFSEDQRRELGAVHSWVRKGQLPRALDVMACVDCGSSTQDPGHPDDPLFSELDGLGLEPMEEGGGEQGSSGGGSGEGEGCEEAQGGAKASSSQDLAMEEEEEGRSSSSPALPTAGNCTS
UniProt O00541, whole entry: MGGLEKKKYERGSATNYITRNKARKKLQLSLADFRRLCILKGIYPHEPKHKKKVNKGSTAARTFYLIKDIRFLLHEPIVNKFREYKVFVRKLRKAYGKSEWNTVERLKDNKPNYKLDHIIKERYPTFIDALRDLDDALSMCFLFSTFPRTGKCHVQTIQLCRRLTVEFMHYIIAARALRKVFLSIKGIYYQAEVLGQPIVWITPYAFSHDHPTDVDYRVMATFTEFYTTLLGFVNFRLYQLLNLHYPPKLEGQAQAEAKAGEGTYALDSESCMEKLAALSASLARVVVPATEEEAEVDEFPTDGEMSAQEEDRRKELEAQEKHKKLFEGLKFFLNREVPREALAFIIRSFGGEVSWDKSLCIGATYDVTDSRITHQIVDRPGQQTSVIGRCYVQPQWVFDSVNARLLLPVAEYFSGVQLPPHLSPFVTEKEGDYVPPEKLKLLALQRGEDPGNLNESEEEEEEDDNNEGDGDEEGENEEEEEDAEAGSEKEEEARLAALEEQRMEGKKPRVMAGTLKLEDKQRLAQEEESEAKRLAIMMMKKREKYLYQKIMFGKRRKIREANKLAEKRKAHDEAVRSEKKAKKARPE
UniProt P05165: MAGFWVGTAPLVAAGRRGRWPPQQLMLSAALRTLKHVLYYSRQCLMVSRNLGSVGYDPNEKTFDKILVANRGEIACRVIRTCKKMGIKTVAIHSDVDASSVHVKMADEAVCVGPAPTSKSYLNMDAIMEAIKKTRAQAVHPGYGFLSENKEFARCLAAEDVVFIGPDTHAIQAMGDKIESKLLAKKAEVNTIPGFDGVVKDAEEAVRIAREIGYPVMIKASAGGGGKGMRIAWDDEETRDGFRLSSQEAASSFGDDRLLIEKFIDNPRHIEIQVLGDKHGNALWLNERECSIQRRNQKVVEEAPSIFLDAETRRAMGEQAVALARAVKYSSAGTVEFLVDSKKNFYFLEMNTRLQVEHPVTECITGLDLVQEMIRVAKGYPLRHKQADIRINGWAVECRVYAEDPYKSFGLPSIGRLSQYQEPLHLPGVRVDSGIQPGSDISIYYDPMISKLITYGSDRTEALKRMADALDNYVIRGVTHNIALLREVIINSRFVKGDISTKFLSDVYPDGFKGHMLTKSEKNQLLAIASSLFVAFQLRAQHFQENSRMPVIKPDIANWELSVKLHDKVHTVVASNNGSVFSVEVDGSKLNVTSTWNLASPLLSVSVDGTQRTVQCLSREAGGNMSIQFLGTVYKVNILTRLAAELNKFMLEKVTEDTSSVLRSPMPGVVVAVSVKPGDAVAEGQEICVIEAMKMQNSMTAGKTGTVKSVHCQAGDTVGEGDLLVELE

compound: Nc1nc2c(ncn2[C@@H]2O[C@H](COP(=O)(O)OP(=O)(O)OP(=O)(O)O)[C@@H](O)[C@H]2O)c(=O)[nH]1; assay: dose-dependent thermal stabilisation call (2D-TPP, DLPTP, 10% FDR) (binary (1 = stabilised)); higher = stabilised by the compound; conditions: system: Jurkat gel-filtered lysate; concentration range 1-500 µM

| Target | dose-dependent thermal stabilisation call |
| --- | --- |
| PMS1 (UniProt P54277) | inactive: 0 |
| PPFIA3 (UniProt O75145) | inactive: 0 |
| PDE6D (UniProt O43924) | active: 1 |
| PITPNA (UniProt Q00169) | inactive: 0 |
| PFKL (UniProt P17858) | active: 1 |
| PITPNB (UniProt P48739) | inactive: 0 |
| PRDX2 (UniProt P32119) | inactive: 0 |
| PPID (UniProt Q08752) | inactive: 0 |
| PRDM10 (UniProt Q9NQV6) | inactive: 0 |
| PIK3C3 (UniProt Q8NEB9) | active: 1 |
| PEX5 (UniProt P50542) | inactive: 0 |
| PPRC1 (UniProt Q5VV67) | inactive: 0 |
| PKM (UniProt P14618) | inactive: 0 |
| PPFIBP1 (UniProt Q86W92) | inactive: 0 |
| POFUT1 (UniProt Q9H488) | inactive: 0 |
| PM20D2 (UniProt Q8IYS1) | inactive: 0 |
| PCMT1 (UniProt P22061) | inactive: 0 |
| PLEKHF2 (UniProt Q9H8W4) | active: 1 |
| PGLS (UniProt O95336) | inactive: 0 |

| Target | dose-dependent thermal stabilisation call |
| --- | --- |
| PIK3R4 (UniProt Q99570) | inactive: 0 |
| PLEKHO2 (UniProt Q8TD55) | inactive: 0 |
| PFDN2 (UniProt Q9UHV9) | inactive: 0 |
| POLD1 (UniProt P28340) | inactive: 0 |
| PBLD (UniProt P30039) | inactive: 0 |
| PPFIA1 (UniProt Q13136) | inactive: 0 |
| PELO (UniProt Q9BRX2) | active: 1 |
| PDRG1 (UniProt Q9NUG6) | inactive: 0 |
| PPP3CC (UniProt P48454) | inactive: 0 |
| PER1 (UniProt O15534) | inactive: 0 |
| PES1 (UniProt O00541) | active: 1 |
| PPP3CA (UniProt Q08209) | inactive: 0 |
| PHPT1 (UniProt Q9NRX4) | inactive: 0 |
| PELP1 (UniProt Q8IZL8) | inactive: 0 |
| PCCA (UniProt P05165) | inactive: 0 |
| PLCB3 (UniProt Q01970) | inactive: 0 |
| POLE3 (UniProt Q9NRF9) | inactive: 0 |
| PPHLN1 (UniProt Q8NEY8) | inactive: 0 |

Copied from the list.
dose-dependent thermal stabilisation call with PPHLN1 (UniProt Q8NEY8) is entered as inactive: 0
dose-dependent thermal stabilisation call with PELP1 (UniProt Q8IZL8) is entered as inactive: 0
dose-dependent thermal stabilisation call with POLE3 (UniProt Q9NRF9) is entered as inactive: 0
